Data as given in PubChem BioAssay AID652272 (Drosophila RNAi Screening Center, 2013)
The screen tested about 21,000 reagents; shown is a random part of those that have a named target and a result. Of all reagents, 503 (2.4%) are marked active. 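Raw plate light values, not normalised; calls rest on replicate z-scores that were not deposited; hits include reporter decreases as well as increases.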 A plus sign joins genes that one reagent is predicted to hit. Not given: the amount of reagent, the time to read-out.

Assay: 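Genome-wide knock-down search for components of Hedgehog signalling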 (primary screen)
Cell system: Drosophila clone 8 (Cl8) cells
Reagents: long dsRNA against Drosophila genes
Measured: 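Firefly light from a Hedgehog-responsive ptc promoter reporter and Renilla reference light, both read on a plate reader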
Scale: firefly Hh reporter signal: higher = more ptc reporter light; Renilla reference signal: higher = more Renilla control light
Rule for the call: 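Called a hit if the two-replicate mean z-score lies below -2 or above +3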
Calls: active = hit: reporter lowered or raised; inactive = not a hit

The first 3 entries, to show the layout:
{"gene":"vg","amplicon":"DRSC07715","firefly Hh reporter signal, replicate 1":1.45e5,"firefly Hh reporter signal, replicate 2":6.36e5,"firefly Hh reporter signal, replicate 3":76565,"Renilla reference signal, replicate 1":2209,"Renilla reference signal, replicate 2":36935,"Outcome":"inactive"}
{"gene":"Mal-B2","amplicon":"DRSC02417","firefly Hh reporter signal, replicate 1":5.97e5,"firefly Hh reporter signal, replicate 2":77019,"Renilla reference signal, replicate 1":3680,"Renilla reference signal, replicate 2":3680,"Outcome":"inactive"}
{"gene":"Sec5","amplicon":"DRSC00714","firefly Hh reporter signal, replicate 1":85265,"firefly Hh reporter signal, replicate 2":47529,"Renilla reference signal, replicate 1":3492,"Renilla reference signal, replicate 2":1755,"Outcome":"inactive"}

The list itself, from the first entry:
{"gene":"vg","amplicon":"DRSC07715","firefly Hh reporter signal, replicate 1":1.45e5,"firefly Hh reporter signal, replicate 2":6.36e5,"firefly Hh reporter signal, replicate 3":76565,"Renilla reference signal, replicate 1":2209,"Renilla reference signal, replicate 2":36935,"Outcome":"inactive"}
{"gene":"Mal-B2","amplicon":"DRSC02417","firefly Hh reporter signal, replicate 1":5.97e5,"firefly Hh reporter signal, replicate 2":77019,"Renilla reference signal, replicate 1":3680,"Renilla reference signal, replicate 2":3680,"Outcome":"inactive"}
{"gene":"Sec5","amplicon":"DRSC00714","firefly Hh reporter signal, replicate 1":85265,"firefly Hh reporter signal, replicate 2":47529,"Renilla reference signal, replicate 1":3492,"Renilla reference signal, replicate 2":1755,"Outcome":"inactive"}
{"gene":"velo","amplicon":"DRSC08841","firefly Hh reporter signal, replicate 1":58546,"firefly Hh reporter signal, replicate 2":88227,"Renilla reference signal, replicate 1":1463,"Renilla reference signal, replicate 2":4333,"Outcome":"inactive"}
{"gene":"velo","amplicon":"DRSC09698","firefly Hh reporter signal, replicate 1":60211,"firefly Hh reporter signal, replicate 2":86983,"Renilla reference signal, replicate 1":3024,"Renilla reference signal, replicate 2":3464,"Outcome":"inactive"}
{"gene":"Rab9","amplicon":"DRSC03281","firefly Hh reporter signal, replicate 1":99009,"firefly Hh reporter signal, replicate 2":44800,"Renilla reference signal, replicate 1":2743,"Renilla reference signal, replicate 2":4384,"Outcome":"inactive"}
{"gene":"thoc7","amplicon":"DRSC08512","firefly Hh reporter signal, replicate 1":65243,"firefly Hh reporter signal, replicate 2":44700,"Renilla reference signal, replicate 1":3196,"Renilla reference signal, replicate 2":2512,"Outcome":"inactive"}
{"gene":"CG31673","amplicon":"DRSC03207","firefly Hh reporter signal, replicate 1":91944,"firefly Hh reporter signal, replicate 2":80340,"Renilla reference signal, replicate 1":3747,"Renilla reference signal, replicate 2":3264,"Outcome":"inactive"}
{"gene":"ORMDL","amplicon":"DRSC11737","firefly Hh reporter signal, replicate 1":1.14e5,"firefly Hh reporter signal, replicate 2":1.66e5,"Renilla reference signal, replicate 1":3829,"Renilla reference signal, replicate 2":4871,"Outcome":"inactive"}
{"gene":"Ugt36A1","amplicon":"DRSC00748","firefly Hh reporter signal, replicate 1":1.97e5,"firefly Hh reporter signal, replicate 2":79091,"Renilla reference signal, replicate 1":5050,"Renilla reference signal, replicate 2":8194,"Outcome":"inactive"}
{"gene":"Tsf2","amplicon":"DRSC09751","firefly Hh reporter signal, replicate 1":1.35e5,"firefly Hh reporter signal, replicate 2":71344,"Renilla reference signal, replicate 1":4561,"Renilla reference signal, replicate 2":2656,"Outcome":"inactive"}
{"gene":"DIP-zeta","amplicon":"DRSC02203","firefly Hh reporter signal, replicate 1":1.25e5,"firefly Hh reporter signal, replicate 2":84683,"Renilla reference signal, replicate 1":3046,"Renilla reference signal, replicate 2":6723,"Outcome":"inactive"}
{"gene":"DIP-zeta","amplicon":"DRSC02204","firefly Hh reporter signal, replicate 1":1.30e5,"firefly Hh reporter signal, replicate 2":98203,"Renilla reference signal, replicate 1":3193,"Renilla reference signal, replicate 2":8016,"Outcome":"inactive"}
{"gene":"DIP-zeta","amplicon":"DRSC02205","firefly Hh reporter signal, replicate 1":88530,"firefly Hh reporter signal, replicate 2":46571,"Renilla reference signal, replicate 1":2389,"Renilla reference signal, replicate 2":4353,"Outcome":"inactive"}
{"gene":"CngB","amplicon":"DRSC04297","firefly Hh reporter signal, replicate 1":1.77e5,"firefly Hh reporter signal, replicate 2":1.14e5,"Renilla reference signal, replicate 1":6284,"Renilla reference signal, replicate 2":4515,"Outcome":"inactive"}
{"gene":"swi2","amplicon":"DRSC06457","firefly Hh reporter signal, replicate 1":1.06e5,"firefly Hh reporter signal, replicate 2":43737,"Renilla reference signal, replicate 1":3098,"Renilla reference signal, replicate 2":2789,"Outcome":"inactive"}
{"gene":"AhcyL2","amplicon":"DRSC14107","firefly Hh reporter signal, replicate 1":64208,"firefly Hh reporter signal, replicate 2":74615,"Renilla reference signal, replicate 1":1480,"Renilla reference signal, replicate 2":2032,"Outcome":"inactive"}
{"gene":"scpr-A + scpr-C + scpr-B","amplicon":"DRSC15715","firefly Hh reporter signal, replicate 1":69288,"firefly Hh reporter signal, replicate 2":1.34e5,"Renilla reference signal, replicate 1":1339,"Renilla reference signal, replicate 2":3696,"Outcome":"inactive"}
{"gene":"CG5412","amplicon":"DRSC15796","firefly Hh reporter signal, replicate 1":82977,"firefly Hh reporter signal, replicate 2":1.01e5,"Renilla reference signal, replicate 1":3770,"Renilla reference signal, replicate 2":3634,"Outcome":"inactive"}
{"gene":"fat-spondin","amplicon":"DRSC07617","firefly Hh reporter signal, replicate 1":1.32e5,"firefly Hh reporter signal, replicate 2":74496,"Renilla reference signal, replicate 1":5661,"Renilla reference signal, replicate 2":2806,"Outcome":"inactive"}
{"gene":"dpr18","amplicon":"DRSC19606","firefly Hh reporter signal, replicate 1":64941,"firefly Hh reporter signal, replicate 2":1.48e5,"Renilla reference signal, replicate 1":1203,"Renilla reference signal, replicate 2":6548,"Outcome":"inactive"}
{"gene":"oaf","amplicon":"DRSC00831","firefly Hh reporter signal, replicate 1":87954,"firefly Hh reporter signal, replicate 2":80756,"Renilla reference signal, replicate 1":1948,"Renilla reference signal, replicate 2":1702,"Outcome":"inactive"}
{"gene":"CG9021","amplicon":"DRSC03128","firefly Hh reporter signal, replicate 1":1.10e5,"firefly Hh reporter signal, replicate 2":54109,"Renilla reference signal, replicate 1":3970,"Renilla reference signal, replicate 2":2534,"Outcome":"inactive"}
{"gene":"CG16756","amplicon":"DRSC18115","firefly Hh reporter signal, replicate 1":60082,"firefly Hh reporter signal, replicate 2":2.04e5,"Renilla reference signal, replicate 1":1452,"Renilla reference signal, replicate 2":8757,"Outcome":"inactive"}
{"gene":"Cpr47Ee","amplicon":"DRSC06343","firefly Hh reporter signal, replicate 1":36016,"firefly Hh reporter signal, replicate 2":19584,"Renilla reference signal, replicate 1":1456,"Renilla reference signal, replicate 2":1824,"Outcome":"active"}
{"gene":"Sil1","amplicon":"DRSC14242","firefly Hh reporter signal, replicate 1":86038,"firefly Hh reporter signal, replicate 2":41851,"Renilla reference signal, replicate 1":3160,"Renilla reference signal, replicate 2":711,"Outcome":"inactive"}
{"gene":"stai","amplicon":"DRSC02920","firefly Hh reporter signal, replicate 1":1.04e5,"firefly Hh reporter signal, replicate 2":50524,"Renilla reference signal, replicate 1":2874,"Renilla reference signal, replicate 2":5880,"Outcome":"inactive"}
